From paper doi:10.1101/2022.12.21.521423 (bioRxiv, 2022)
Read-outs that look alike come from different tables or passages of the source. No constants are given. Whether binding was seen depends on the method and setting. For some of these results: Binding seen in cells or lysates may run through a third protein. Some binding calls cover weakened binding; strength is not graded here. For some of these results: Tags and fused reporters may be left off the sequences shown.

The chains behind the UniProt entries cited, without tags or fusion partners. Where a name states a change or a piece, a line headed by the entry shows the natural chain unless it says otherwise. Residues count along the entry.
UniProt Q96QE4, 28-905: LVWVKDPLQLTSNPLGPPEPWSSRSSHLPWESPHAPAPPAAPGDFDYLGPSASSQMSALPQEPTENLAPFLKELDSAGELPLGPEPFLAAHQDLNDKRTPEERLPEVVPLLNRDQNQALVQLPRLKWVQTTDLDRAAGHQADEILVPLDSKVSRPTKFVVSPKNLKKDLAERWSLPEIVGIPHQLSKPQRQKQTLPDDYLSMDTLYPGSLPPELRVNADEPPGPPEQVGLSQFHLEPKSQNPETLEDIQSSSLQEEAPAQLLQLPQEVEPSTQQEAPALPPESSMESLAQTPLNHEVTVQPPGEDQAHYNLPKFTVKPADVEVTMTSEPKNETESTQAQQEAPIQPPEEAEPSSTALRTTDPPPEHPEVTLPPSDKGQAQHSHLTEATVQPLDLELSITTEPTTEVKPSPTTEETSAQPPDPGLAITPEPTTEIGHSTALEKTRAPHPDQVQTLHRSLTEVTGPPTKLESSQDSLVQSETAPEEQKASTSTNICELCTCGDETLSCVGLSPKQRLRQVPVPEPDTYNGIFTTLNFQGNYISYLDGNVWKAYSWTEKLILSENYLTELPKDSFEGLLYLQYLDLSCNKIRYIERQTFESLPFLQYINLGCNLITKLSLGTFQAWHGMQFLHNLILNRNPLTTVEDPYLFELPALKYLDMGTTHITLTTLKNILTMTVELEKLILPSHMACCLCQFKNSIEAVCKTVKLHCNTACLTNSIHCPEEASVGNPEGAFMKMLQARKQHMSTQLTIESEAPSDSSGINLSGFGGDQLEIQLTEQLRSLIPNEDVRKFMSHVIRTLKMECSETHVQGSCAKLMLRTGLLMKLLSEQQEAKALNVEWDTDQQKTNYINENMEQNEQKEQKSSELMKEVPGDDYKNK
UniProt Q96QE4, whole entry, looked up, stated change not applied: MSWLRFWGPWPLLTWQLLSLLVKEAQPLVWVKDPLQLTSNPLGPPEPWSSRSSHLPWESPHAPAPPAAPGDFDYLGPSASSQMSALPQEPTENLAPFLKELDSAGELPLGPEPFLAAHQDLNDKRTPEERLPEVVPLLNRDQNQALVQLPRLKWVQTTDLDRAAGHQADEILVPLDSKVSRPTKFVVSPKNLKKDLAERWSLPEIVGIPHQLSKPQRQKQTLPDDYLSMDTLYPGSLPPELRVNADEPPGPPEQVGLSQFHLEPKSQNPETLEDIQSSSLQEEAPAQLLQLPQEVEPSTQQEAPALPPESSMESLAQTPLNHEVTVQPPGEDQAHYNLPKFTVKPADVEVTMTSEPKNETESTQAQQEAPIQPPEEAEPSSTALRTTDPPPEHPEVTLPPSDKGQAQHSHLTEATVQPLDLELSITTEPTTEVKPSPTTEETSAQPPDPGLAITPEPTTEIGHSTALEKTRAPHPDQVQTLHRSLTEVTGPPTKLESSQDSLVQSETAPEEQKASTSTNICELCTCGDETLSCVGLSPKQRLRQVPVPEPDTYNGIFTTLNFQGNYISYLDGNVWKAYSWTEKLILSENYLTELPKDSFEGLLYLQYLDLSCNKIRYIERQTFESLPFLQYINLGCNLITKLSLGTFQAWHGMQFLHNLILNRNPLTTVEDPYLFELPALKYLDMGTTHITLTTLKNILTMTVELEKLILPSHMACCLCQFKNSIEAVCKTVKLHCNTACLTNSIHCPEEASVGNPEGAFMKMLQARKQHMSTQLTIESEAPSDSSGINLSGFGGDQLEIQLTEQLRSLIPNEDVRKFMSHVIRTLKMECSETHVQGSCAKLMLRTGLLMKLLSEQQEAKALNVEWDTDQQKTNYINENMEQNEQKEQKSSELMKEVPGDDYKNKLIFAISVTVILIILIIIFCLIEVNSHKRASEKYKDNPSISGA
UniProt A6NM11, 36-1700: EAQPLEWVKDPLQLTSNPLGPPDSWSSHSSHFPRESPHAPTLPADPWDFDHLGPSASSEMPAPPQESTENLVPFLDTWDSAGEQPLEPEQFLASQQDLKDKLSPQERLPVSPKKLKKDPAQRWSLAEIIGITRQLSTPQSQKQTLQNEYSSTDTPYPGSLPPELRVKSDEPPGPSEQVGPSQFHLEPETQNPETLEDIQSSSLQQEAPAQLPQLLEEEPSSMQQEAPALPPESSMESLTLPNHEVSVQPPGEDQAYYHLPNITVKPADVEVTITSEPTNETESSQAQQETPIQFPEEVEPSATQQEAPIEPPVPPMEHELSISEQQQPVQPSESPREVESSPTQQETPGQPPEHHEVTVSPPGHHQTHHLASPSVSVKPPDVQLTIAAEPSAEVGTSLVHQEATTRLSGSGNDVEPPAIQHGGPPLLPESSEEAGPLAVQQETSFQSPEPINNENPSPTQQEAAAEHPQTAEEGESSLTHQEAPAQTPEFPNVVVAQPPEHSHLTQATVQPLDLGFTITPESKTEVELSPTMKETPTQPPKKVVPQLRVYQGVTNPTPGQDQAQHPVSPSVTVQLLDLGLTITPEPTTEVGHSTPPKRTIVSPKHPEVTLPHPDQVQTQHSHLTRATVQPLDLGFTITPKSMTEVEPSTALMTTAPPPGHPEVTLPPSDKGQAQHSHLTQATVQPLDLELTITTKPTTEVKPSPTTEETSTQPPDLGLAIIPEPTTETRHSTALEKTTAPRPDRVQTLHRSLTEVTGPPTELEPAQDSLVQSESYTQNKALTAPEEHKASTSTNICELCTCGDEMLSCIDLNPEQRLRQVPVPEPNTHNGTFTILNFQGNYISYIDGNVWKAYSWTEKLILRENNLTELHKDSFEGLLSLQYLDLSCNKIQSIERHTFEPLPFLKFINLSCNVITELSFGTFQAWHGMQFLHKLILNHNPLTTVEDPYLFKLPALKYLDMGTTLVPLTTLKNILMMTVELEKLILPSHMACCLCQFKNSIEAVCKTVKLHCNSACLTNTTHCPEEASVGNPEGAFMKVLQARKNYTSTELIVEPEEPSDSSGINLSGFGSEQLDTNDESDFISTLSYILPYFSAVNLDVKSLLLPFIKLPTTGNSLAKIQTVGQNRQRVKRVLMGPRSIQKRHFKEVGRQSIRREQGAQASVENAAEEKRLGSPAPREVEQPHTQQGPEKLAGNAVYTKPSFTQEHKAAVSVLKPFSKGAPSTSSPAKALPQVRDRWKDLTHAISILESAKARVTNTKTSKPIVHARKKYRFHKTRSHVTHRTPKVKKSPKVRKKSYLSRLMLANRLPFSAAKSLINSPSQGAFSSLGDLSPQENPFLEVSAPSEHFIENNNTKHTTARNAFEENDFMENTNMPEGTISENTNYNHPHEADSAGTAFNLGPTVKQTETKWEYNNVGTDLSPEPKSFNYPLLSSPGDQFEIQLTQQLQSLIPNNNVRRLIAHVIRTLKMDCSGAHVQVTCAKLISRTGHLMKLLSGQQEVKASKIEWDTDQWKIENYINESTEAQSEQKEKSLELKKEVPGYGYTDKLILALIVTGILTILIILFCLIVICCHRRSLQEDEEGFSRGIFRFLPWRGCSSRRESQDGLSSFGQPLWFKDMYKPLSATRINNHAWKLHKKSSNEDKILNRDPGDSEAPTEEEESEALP
UniProt Q07699, 19-218: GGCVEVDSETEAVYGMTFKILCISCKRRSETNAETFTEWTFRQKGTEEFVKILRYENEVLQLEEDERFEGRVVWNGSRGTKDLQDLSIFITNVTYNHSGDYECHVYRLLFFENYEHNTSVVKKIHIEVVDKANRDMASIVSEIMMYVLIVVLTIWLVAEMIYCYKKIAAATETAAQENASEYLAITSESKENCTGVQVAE
UniProt Q86UE6, 35-427: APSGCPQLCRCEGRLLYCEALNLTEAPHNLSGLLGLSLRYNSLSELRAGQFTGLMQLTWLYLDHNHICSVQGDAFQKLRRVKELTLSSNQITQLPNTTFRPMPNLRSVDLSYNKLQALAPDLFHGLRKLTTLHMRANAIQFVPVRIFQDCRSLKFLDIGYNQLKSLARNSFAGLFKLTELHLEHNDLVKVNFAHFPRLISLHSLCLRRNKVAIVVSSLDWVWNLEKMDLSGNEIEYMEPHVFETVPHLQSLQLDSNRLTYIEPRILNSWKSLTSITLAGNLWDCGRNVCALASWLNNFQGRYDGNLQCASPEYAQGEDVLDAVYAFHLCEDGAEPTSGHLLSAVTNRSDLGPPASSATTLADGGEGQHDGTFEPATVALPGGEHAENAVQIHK

Legend:
HA-LRRC37B-ECTO (human) [1] = target: HA-LRRC37B-ECTO (human) (UniProt Q96QE4); assay: co-IP
[2] = target: HA-LRRC37B-LB-ECTO (human) (UniProt Q96QE4); assay: co-IP
LRRC37B-HA (human) [3] = target: LRRC37B-HA (human) (UniProt Q96QE4); assay: co-IP
[4] = target: human LRRC37A2-HA (human) (UniProt A6NM11); assay: co-IP
SCN1B-FLAG = SCN1B-FLAG (UniProt Q07699); assay: co-IP
[5] = target: LRRC37B-HA expressed in mouse cortex (human) (UniProt Q96QE4); assay: co-IP
LRRC37B-HA (human) [6] = target: LRRC37B-HA (human) (UniProt Q96QE4); assay: co-IP; remark: listed apart in the source
NAV1.6 (SCN8A) = NAV1.6 (SCN8A) (UniProt Q9UQD0); assay: co-IP
[7] = target: HA-LRRC37B-ΔLRR-ECTO (human) (UniProt Q96QE4); assay: cell-surface binding assay
[8] = target: LRRC37B_ECTO fused with alkaline phosphatase (human) (UniProt Q96QE4); assay: ELISA
HA-LRRC37B-ECTO (human) [9] = target: HA-LRRC37B-ECTO (human) (UniProt Q96QE4); assay: co-IP; remark: listed apart in the source
[10] = target: HA-LRRC37B-LRR-ECTO (human) (UniProt Q96QE4); assay: co-IP
[11] = target: HA-LRRC37B-ΔLRR-ECTO (human) (UniProt Q96QE4); assay: co-IP
LRRTM1_ECTO = LRRTM1_ECTO (UniProt Q86UE6); assay: co-IP
SLITRK2_ECTO = target: T1, SLITRK2_ECTO (UniProt Q9H156); assay: co-IP
T1 sequence: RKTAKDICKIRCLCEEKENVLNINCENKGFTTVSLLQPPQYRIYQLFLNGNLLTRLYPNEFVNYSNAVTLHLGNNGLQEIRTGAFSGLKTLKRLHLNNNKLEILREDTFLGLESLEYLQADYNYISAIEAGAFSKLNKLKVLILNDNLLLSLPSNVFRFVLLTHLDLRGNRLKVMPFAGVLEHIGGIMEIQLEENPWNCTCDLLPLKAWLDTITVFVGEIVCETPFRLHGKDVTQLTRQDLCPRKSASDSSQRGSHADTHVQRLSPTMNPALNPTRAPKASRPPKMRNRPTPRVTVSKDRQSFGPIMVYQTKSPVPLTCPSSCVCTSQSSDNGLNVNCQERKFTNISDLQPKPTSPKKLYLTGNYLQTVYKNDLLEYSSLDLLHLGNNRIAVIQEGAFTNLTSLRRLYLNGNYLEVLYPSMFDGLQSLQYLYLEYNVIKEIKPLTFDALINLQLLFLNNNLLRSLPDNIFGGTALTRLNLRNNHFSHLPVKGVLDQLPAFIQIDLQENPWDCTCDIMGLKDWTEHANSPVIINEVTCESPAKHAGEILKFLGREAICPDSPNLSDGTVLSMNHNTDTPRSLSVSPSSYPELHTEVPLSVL

[12] = target: human LRRC37A2-HA (human) (UniProt A6NM11); assay: co-IP; remark: listed apart in the source

## SCN1B-FLAG (from UniProt Q07699 19-218)
HA-LRRC37B-ECTO (human) [1]
  binding: binds
[2]
  binding: binds
LRRC37B-HA (human) [3]
  binding: binds
[4]
  binding: no binding

## HA-LRRC37B-ECTO (from UniProt Q96QE4 28-905) (domain or fragment)
SCN1B-FLAG
  binding: binds

## FGF13A of mouse cortex (from UniProt P70377-1 1-245) (ligand)
[5]
  binding: binds

B1: FGF13A ExonS synthetic peptide (peptide, UniProt Q92913-1 1-63)
peptide: MAAAIASSLIRQKRQAREREKSNACKCVSSPSKGKTSCDKNKLNVFSRVKLFGSKKRRRRRPE
LRRC37B-HA (human) [6]
  binding: binds
NAV1.6 (SCN8A)
  binding: binds

B2: FGF13A ExonS-biotin (peptide, UniProt Q92913-1 1-63)
peptide: B1 peptide
modifications: biotin
[7]
  binding: no binding (tested: 100 nM)

B3: FGF13B (protein, UniProt Q92913-2 1-192)
chain: MALLRKSYSEPQLKGIVTKLYSRQGYHLQLQADGTIDGTKDEDSTYTLFNLIPVGLRVVAIQGVQTKLYLAMNSEGYLYTSELFTPECKFKESVFENYYVTYSSMIYRQQQSGRGWYLGLNKEGEIMKGNHVKKNKPAAHFLPKPLKVAMYKEPSLHDLTEFSRSGSGTPTKSRSVSGVLNGGKSMSHNEST
LRRC37B-HA (human) [6]
  binding: no binding

B4: SLITRK5 ectodomain fused to an Fc domain (Fc fusion, UniProt O94991 41-664)
chain: IDYYGEICDNACPCEEKDGILTVSCENRGIISLSEISPPRFPIYHLLLSGNLLNRLYPNEFVNYTGASILHLGSNVIQDIETGAFHGLRGLRRLHLNNNKLELLRDDTFLGLENLEYLQVDYNYISVIEPNAFGKLHLLQVLILNDNLLSSLPNNLFRFVPLTHLDLRGNRLKLLPYVGLLQHMDKVVELQLEENPWNCSCELISLKDWLDSISYSALVGDVVCETPFRLHGRDLDEVSKQELCPRRLISDYEMRPQTPLSTTGYLHTTPASVNSVATSSSAVYKPPLKPPKGTRQPNKPRVRPTSRQPSKDLGYSNYGPSIAYQTKSPVPLECPTACSCNLQISDLGLNVNCQERKIESIAELQPKPYNPKKMYLTENYIAVVRRTDFLEATGLDLLHLGNNRISMIQDRAFGDLTNLRRLYLNGNRIERLSPELFYGLQSLQYLFLQYNLIREIQSGTFDPVPNLQLLFLNNNLLQAMPSGVFSGLTLLRLNLRSNHFTSLPVSGVLDQLKSLIQIDLHDNPWDCTCDIVGMKLWVEQLKVGVLVDEVICKAPKKFAETDMRSIKSELLCPDYSDVVVSTPTPSSIQVPARTSAVTPAVRLNSTGAPASLGAGGGASSVPLS
[8]
  binding: no binding

B5: SLITRK1 ectodomain fused to an Fc domain (Fc fusion, UniProt Q96PX8 18-622)
chain: NVTGDVCKEKICSCNEIEGDLHVDCEKKGFTSLQRFTAPTSQFYHLFLHGNSLTRLFPNEFANFYNAVSLHMENNGLHEIVPGAFLGLQLVKRLHINNNKIKSFRKQTFLGLDDLEYLQADFNLLRDIDPGAFQDLNKLEVLILNDNLISTLPANVFQYVPITHLDLRGNRLKTLPYEEVLEQIPGIAEILLEDNPWDCTCDLLSLKEWLENIPKNALIGRVVCEAPTRLQGKDLNETTEQDLCPLKNRVDSSLPAPPAQEETFAPGPLPTPFKTNGQEDHATPGSAPNGGTKIPGNWQIKIRPTAAIATGSSRNKPLANSLPCPGGCSCDHIPGSGLKMNCNNRNVSSLADLKPKLSNVQELFLRDNKIHSIRKSHFVDYKNLILLDLGNNNIATVENNTFKNLLDLRWLYMDSNYLDTLSREKFAGLQNLEYLNVEYNAIQLILPGTFNAMPKLRILILNNNLLRSLPVDVFAGVSLSKLSLHNNYFMYLPVAGVLDQLTSIIQIDLHGNPWECSCTIVPFKQWAERLGSEVLMSDLKCETPVNFFRKDFMLLSNDEICPQLYARISPTLTSHSKNSTGLAETGTHSNSYLDTSRVSISVLVP
[8]
  binding: no binding

B6: FGF13A E. coli recombinant protein (ligand, UniProt Q92913-1 1-245)
chain: MAAAIASSLIRQKRQAREREKSNACKCVSSPSKGKTSCDKNKLNVFSRVKLFGSKKRRRRRPEPQLKGIVTKLYSRQGYHLQLQADGTIDGTKDEDSTYTLFNLIPVGLRVVAIQGVQTKLYLAMNSEGYLYTSELFTPECKFKESVFENYYVTYSSMIYRQQQSGRGWYLGLNKEGEIMKGNHVKKNKPAAHFLPKPLKVAMYKEPSLHDLTEFSRSGSGTPTKSRSVSGVLNGGKSMSHNEST
HA-LRRC37B-ECTO (human) [9]
  binding: binds
[10]
  binding: binds
[11]
  binding: no binding
LRRC37B-HA (human) [6]
  binding: binds
NAV1.6 (SCN8A)
  binding: binds

B7: FGF13A (ligand, UniProt Q92913-1 1-245)
chain: B6 chain
HA-LRRC37B-ECTO (human) [9]
  binding: binds
[10]
  binding: binds
[11]
  binding: no binding
LRRC37B-HA (human) [6]
  binding: binds
LRRTM1_ECTO
  binding: no binding
NAV1.6 (SCN8A)
  binding: binds
SLITRK2_ECTO
  binding: no binding
[12]
  binding: binds
